Data as given in PubChem BioAssay AID504764 (Drosophila RNAi Screening Center, 2011).

Assay: 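Genes whose knock-down alters Notch-dependent transcription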 (primary screen)
System: Drosophila Kc167 cells
Reagent: long dsRNA against Drosophila genes
Duration: about 5 days (4 days dsRNA, then 24 h after transfection)
Challenge: transfection of constitutively active membrane-tethered Notch lacking the extracellular domain, read 24 h later
Measurement: 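Firefly luciferase from an E(spl)m3 reporter with active Notch, plus control-promoter and uninduced reporter wells for normalisation; unnormalised counts, duplicate wells a and b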
Reading the numbers: induced reporter light, run 1, well a and induced reporter light, run 1, well b: higher = more light from the Notch target reporter with active Notch; control promoter light, run 1, well a and control promoter light, run 1, well b: higher = more light from the viral control promoter (cell number, transfection, viability); uninduced reporter light, run 1, well a: higher = more light from the Notch target reporter without active Notch
Rule for the call: 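Wells with low control signal or poorly matching duplicates excluded; duplicates averaged; per source plate, z beyond ±2 for induced/control log2 ratio or beyond ±1.8 for induced/uninduced marks a hit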
Calls: active = modifier hit (raised or lowered Notch signal); inactive = not a hit
The screen tested about 22,000 reagents; shown is an unselected part of those that have a named target and a result. Of all reagents, 403 (1.9%) got an active call. 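Unnormalised raw counts per well; ratio z-scores behind the hit calls and whether each hit raises or lowers signal are not deposited.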 Reagents against one gene are numbered here. A plus sign joins genes that one reagent is predicted to hit. The record does not give: the amount of reagent.

With knock-down of fs(1)M3, the screen gave induced reporter light, run 1, well a = 2.21e5; induced reporter light, run 1, well b = 1.99e5; control promoter light, run 1, well a = 2.56e5; control promoter light, run 1, well b = 2.23e5; uninduced reporter light, run 1, well a = 15440; inactive.
Against Pym the deposit lists inactive.
For ida, the entry reads induced reporter light, run 1, well a = 1.23e5; induced reporter light, run 1, well b = 1.04e5; control promoter light, run 1, well a = 1.98e5; control promoter light, run 1, well b = 1.52e5; uninduced reporter light, run 1, well a = 7810; inactive.
Against Jon99Fii + Jon99Cii + Jon99Ciii + 1 more the deposit lists induced reporter light, run 1, well a = 1.30e5; induced reporter light, run 1, well b = 1.30e5; control promoter light, run 1, well a = 1.77e5; control promoter light, run 1, well b = 1.99e5; uninduced reporter light, run 1, well a = 12085; inactive.
Menl-2 + Menl-1 #1 showed induced reporter light, run 1, well a = 98730; induced reporter light, run 1, well b = 73045; control promoter light, run 1, well a = 1.08e5; control promoter light, run 1, well b = 83920; uninduced reporter light, run 1, well a = 6990; inactive.
Menl-2 + Menl-1 #2 scored induced reporter light, run 1, well a = 1.22e5; induced reporter light, run 1, well b = 94335; control promoter light, run 1, well a = 97760; control promoter light, run 1, well b = 71025; uninduced reporter light, run 1, well a = 8160; inactive.
After knock-down of CG32507, the screen gave induced reporter light, run 1, well a = 1.23e5; induced reporter light, run 1, well b = 1.20e5; control promoter light, run 1, well a = 1.26e5; control promoter light, run 1, well b = 1.14e5; uninduced reporter light, run 1, well a = 8195; inactive.
Depletion of Gclm resulted in: induced reporter light, run 1, well a = 99720; induced reporter light, run 1, well b = 1.06e5; control promoter light, run 1, well a = 1.25e5; control promoter light, run 1, well b = 1.03e5; uninduced reporter light, run 1, well a = 10555; inactive.
Silencing of CG7582 gave: induced reporter light, run 1, well a = 1.71e5; induced reporter light, run 1, well b = 1.51e5; control promoter light, run 1, well a = 1.92e5; control promoter light, run 1, well b = 1.72e5; uninduced reporter light, run 1, well a = 12350; inactive.
For CNPYb the deposit lists induced reporter light, run 1, well a = 1.42e5; induced reporter light, run 1, well b = 1.73e5; control promoter light, run 1, well a = 81280; control promoter light, run 1, well b = 87835; uninduced reporter light, run 1, well a = 12235; inactive.
With knock-down of aust the results were induced reporter light, run 1, well a = 1.11e5; induced reporter light, run 1, well b = 1.34e5; control promoter light, run 1, well a = 63545; control promoter light, run 1, well b = 94515; uninduced reporter light, run 1, well a = 17310; inactive.
With knock-down of Noc2, the record shows induced reporter light, run 1, well a = 1.92e5; induced reporter light, run 1, well b = 1.63e5; control promoter light, run 1, well a = 1.56e5; control promoter light, run 1, well b = 1.59e5; uninduced reporter light, run 1, well a = 12205; inactive.
With knock-down of Ugt37A3 the results were induced reporter light, run 1, well a = 90160; induced reporter light, run 1, well b = 85300; control promoter light, run 1, well a = 79490; control promoter light, run 1, well b = 59225; uninduced reporter light, run 1, well a = 5430; inactive.
Against Imp #1 the deposit lists induced reporter light, run 1, well a = 75025; induced reporter light, run 1, well b = 1.10e5; control promoter light, run 1, well a = 1.12e5; control promoter light, run 1, well b = 93035; uninduced reporter light, run 1, well a = 5955; inactive.
Imp #2 gave induced reporter light, run 1, well a = 1.33e5; induced reporter light, run 1, well b = 1.17e5; control promoter light, run 1, well a = 1.76e5; control promoter light, run 1, well b = 1.70e5; uninduced reporter light, run 1, well a = 9832; inactive.
With knock-down of CG10317 the results were induced reporter light, run 1, well a = 2.32e5; induced reporter light, run 1, well b = 2.23e5; control promoter light, run 1, well a = 2.05e5; control promoter light, run 1, well b = 2.11e5; uninduced reporter light, run 1, well a = 20530; inactive.
With knock-down of Tpc2, the record shows induced reporter light, run 1, well a = 2.11e5; induced reporter light, run 1, well b = 2.02e5; control promoter light, run 1, well a = 1.68e5; control promoter light, run 1, well b = 1.89e5; uninduced reporter light, run 1, well a = 14360; inactive.
After knock-down of CG14054 the results were induced reporter light, run 1, well a = 82595; induced reporter light, run 1, well b = 91640; control promoter light, run 1, well a = 1.63e5; control promoter light, run 1, well b = 1.84e5; uninduced reporter light, run 1, well a = 8575; inactive.
